In PubChem BioAssay AID2685 (National Center for Advancing Translational Sciences (NCATS), 2010):
Out of some 320,000 compounds screened, about 2,100 (0.66%) were called active. The shares of active, inactive and inconclusive entries below differ from those in the screen. Calls follow the shape of the dose curve; as a rule, active = well fitted inhibition curve with a large enough effect in the signal ratio, with a control signal flat (not every such curve was filed as active); inconclusive = small, poorly fitted or top-dose-only effect, or effect the other way, or a change in a side signal; inactive = flat fitted curve, though single readings scatter; the % refers to the signal ratio. Potencies of inconclusive entries are doubtful fits and often do not repeat. Where a SMILES comes first, the peptide text is derived from it. The star is where a group is joined. Boc = CC(C)(C)OC(=O)*

Assay: qHTS Assay for Lipid Storage Modulators in Drosophila S3 Cells
Conditions: BODIPY lipid droplet fluorescence, 18-24 h, cells fed with added oleic acid; lipid storage change, negative = inhibition: at 46.1 µM (top of the series) unless noted
Method in brief: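 Drosophila S3 cells loaded with oleic acid (400 uM, as added) and compounds at several concentrations; lipid droplets imaged by 488-nm laser-scanning cytometry, 500–530 nm intensity and object ratio to cell channel. Percent activity normalized to 20 uM Triacsin C.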
% is scaled to controls: 0 for no effect and ±100 for the full control effect; potency is read from the fitted curve at half-maximal effect.

Potency, active:
COc1cc2c(cc1OC)CN(c1ccc3ccccc3n1)CC2 14.6 µM, CCN1C(=O)/C(=C\c2ccc(-c3cccc(C(=O)OC)c3)o2)SC1=Nc1ccc(C(=O)O)cc1 6.51 µM, CCc1cccc(OCC(=O)Nc2cc(S(=O)(=O)N3CCOCC3)ccc2N2CCCC2)c1 13 µM, O=c1c(Cl)c(Cl)cnn1Cc1ccccc1Cl 14.6 µM, O=C(CSc1nc2ccccc2o1)Nc1nncs1 16.4 µM, Cc1cc(=O)n2nc(N3CCCC(C(=O)NCc4ccccc4Br)C3)sc2n1 (stereo unspecified) 1.46 µM

Potency, inconclusive:
COc1ccc(/C=N/NC(=O)c2cc[n+]([O-])cc2)cc1O 29.1 µM [activator, single point], O=C(NCc1ccncc1)C1CCN(S(=O)(=O)c2cccc(C(F)(F)F)c2)CC1 14.6 µM [activator, partial curve], CN(Cc1ccccc1)C(=O)c1[nH]cnc1C(=O)N[C@@H](Cc1ccccc1)C(=O)OC(C)(C)C 29.1 µM [falling, single point], COc1ccccc1-c1nc(C#N)c(NCc2ccc(F)cc2)o1 16.4 µM [activator, partial curve], Cc1ccc(S(=O)(=O)N2CC=C(C(=O)NC3CC3)CC2)cc1 0.0046 µM [falling, full curve, poor fit], COC(=O)c1ccc(CSc2nnc(-c3ccncc3)n2Cc2ccccc2)o1 0.092 µM [activator, full curve, poor fit], COc1ccc(NC(=O)Nc2ccccc2)cc1S(=O)(=O)N1CCCCC1 4.11 µM [activator, full curve], Cc1cc(=O)oc2cc(OCC(=O)OCC(=O)Nc3c(C)n(C)n(-c4ccccc4)c3=O)ccc12 0.461 µM [falling, partial curve, poor fit], Cc1ccc(NC(=O)CCCCCN2C(=O)[C@@H]3Cc4ccccc4CN3C2=O)c(Cl)c1 6.51 µM [activator, single point], OCCC1CN(Cc2ccc(F)cc2Cl)CCN1CCc1ccccc1 (stereo unspecified) 18.4 µM [activator, single point], CC1CCCN(C(=O)CSc2nnc(-c3ccco3)n2C)C1 (stereo unspecified) 4.61 µM [falling, full curve, poor fit], Cn1cccc1/C=N\NC(=O)C1COc2ccc(C(C)(C)C)cc2O1 (stereo unspecified) 0.731 µM [falling, full curve], O=C(COC(=O)c1ccc(S(=O)(=O)C(F)F)cc1)Nc1ccccc1C(=O)NC1CC1 1.46 µM [falling, full curve, poor fit], CC(=O)Nc1ccc(NC(=O)C(C)Oc2ccccc2C(=O)NCc2ccccc2)cc1 (stereo unspecified) 4.61 µM [falling, full curve, poor fit], COc1ccccc1OCC(O)CN1C(=O)NC(C)(C)C1=O (stereo unspecified) 9.2 µM [activator, partial curve], CCO/C(C)=C1/SC(=S)NC1=O 0.092 µM [falling, full curve, poor fit], O=C(CSc1nncn1-c1ccccc1F)NC1CCCCC1 23.1 µM [activator, single point], Cn1ccnc1SCC(=O)Nc1cccc(S(=O)(=O)N2CCCCCC2)c1 0.0517 µM [activator, full curve, poor fit], COc1ccc(Br)cc1/C=N/NC(=O)c1cccnc1 6.51 µM [falling, single point], O=c1oc(-c2ccc(F)cc2)nc2ccsc12 0.58 µM [falling, partial curve, poor fit]

Lipid storage change, negative = inhibition, inconclusive:
COc1cc(/C=N/NC(=O)c2ccc(N)cc2)ccc1OC(=O)c1cccc(C)c1 15.6%, COc1ccc(OC)c(CNC(=O)CCCc2cn(C)c3ccccc23)c1 -19.8%, O=C(CCN1C(=O)C2CCCCC2C1=O)Nc1ccc(F)c(F)c1F (stereo unspecified) 22.6%, Cc1cc(C)c2c(-n3cccc3)nn(CC#N)c2n1 0.879%, COc1ccc(C(=O)CSc2nnc(CN3CCCCC3)n2-c2ccc(F)cc2)cc1OC -2.74%, O=S(=O)(NCc1ccc2c(c1)OCO2)c1ccc(Cl)s1 11.4%, Cc1ccc(/C=N/n2c(-c3cccs3)n[nH]c2=S)cc1 8.29%, CCOc1cc(CNC(=O)CCCn2c(=O)c3cccn3c3cccnc32)cc(OCC)c1OCC 2.73%, Cc1ccc(Cn2c(=O)c3ccccc3n3c(SCC(=O)N4CCCCC4C)nnc23)cc1 (stereo unspecified) 9.04%, CCCCCCC(=O)N(O)C1CC(=O)N(c2ccc(Br)cc2)C1=O (stereo unspecified) 92.9%, COC(=O)c1c(-c2ccccc2)noc1C 22.5%, O=C(c1ccco1)N1CCCC(c2nc3c(nnn3Cc3ccc(Cl)cc3Cl)c(=O)[nH]2)C1 (stereo unspecified) -28.8%, COc1ccccc1/C=C1/C(=O)N(c2ccc([N+](=O)[O-])cc2)N=C1C 26.5%, CC(C)CC(NC(=O)OC(C)(C)C)C(=O)NC(C(=O)N1CCCC1C(N)=O)C(C)C (stereo not drawn) (Boc-Leu-Val-Pro-NH2; configuration not given here) -28.3%, CCC(C)C(NC(=O)OCc1ccccc1)C(=O)OCN1C(=O)c2ccccc2C1=O (stereo unspecified) 16.3%, COc1ccc(S(=O)(=O)N2CCCC(C(=O)NCC3CCCO3)C2)cc1Cl (stereo unspecified) -7.01%, COc1cc([N+](=O)[O-])ccc1NC(=O)Nc1cccnc1 -34.1%, CC(=O)NC1c2ccccc2C(=O)N1Cc1ccccc1 (stereo unspecified) 70.5%, Cc1nn(Cc2noc(C(=O)NC3CCC(C)CC3)n2)c(C)c1Br (stereo unspecified) 27.4%, COc1cc(S(=O)(=O)N2CCOCC2)ccc1NC(=O)CN1c2cccc3cccc(c23)S1(=O)=O 26.1%, CCCNc1nc2c(c(=O)[nH]c(=O)n2C)n1Cc1cccc(Br)c1 78.1%, CCN(CC(=O)Nc1ccc(NC(C)=O)cc1)C(=O)/C=C/c1ccc(S(=O)(=O)N2CCCCCC2)cc1 3.3%, COCc1ccc(CN2CCC(Oc3ccc(C(=O)NCc4ccccn4)cc3)CC2)o1 77.1%, O=C(O)c1ccc(N/N=C/c2ccc(-c3ccc(Br)cc3)o2)cc1 -16.4%, O=S1(=O)C[C@@H]2N=C(N/N=C/c3ccccc3)S[C@@H]2C1 -9.5%, C=CCCN(Cc1ccccc1)S(=O)(=O)c1cc(Br)ccc1Br -3.62%, COCCNC(=S)N(c1ccccc1)C(C)C -19.6%, CCOC(=O)c1ccc(N2C(=O)c3cccc4c(C(=O)O)ccc(c34)C2=O)cc1 55.8%, CC1(C)COC(/C=C/c2ccc([N+](=O)[O-])cc2)=N1 -78.5%, Cn1nc(C(=O)OCC(=O)NC2CCS(=O)(=O)C2)c2ccccc2c1=O (stereo unspecified) 9.53%, CC(C)c1ccc(CCNC(=O)c2cccc(S(=O)(=O)N3CCN(C)CC3)c2)cc1 -53.9%, Cc1ccc(C(=O)NNC(=O)c2cccs2)cc1 -3.24%, C[C@]12CC[C@H]3C(=CCc4cc(O)ccc43)[C@@H]1CCC2=O -11.5%, Cc1ccc(-n2nc(C)c3c(C)c(CCC(=O)NCCCOC(C)C)c(C)nc32)cc1 -3.47%, CC(=O)c1ccc(N2CCN(C(=O)c3cc(-c4ccncc4)nc4ccc(Cl)cc34)CC2)cc1 4.04%, O=C(Nc1cccnc1)C(Cc1ccccc1)n1cccc1 (stereo unspecified) 4.68% [at 9.22 µM], COc1cccc(OCC(O)CN2CCN(c3ccccn3)CC2)c1 (stereo unspecified) 19.2%, N#Cc1c(Cl)cccc1-n1ccnc1 -0.956%, CN(C)c1ccc(-c2cc([C@H]3[C@@H]4C=CCC[C@@]4(C)C(=O)N3Cc3ccccc3)ccc2F)cc1 -20.8%, O=C(COC(=O)c1ccc(Cl)nc1)Nc1ccc(Cl)cc1, COC(CNC(=O)C(=O)Nc1cc2c3c(c1)CC(=O)N3CCC2)OC 14.8%, Cc1nn(-c2ccccc2)c(Cl)c1/C=C1\SC(=S)N(C)C1=O 26.6%, COCCCNC(=O)/C(C#N)=C/c1c(N2CCN(C)CC2)nc2c(C)cccn2c1=O 9.31%, COc1ccc(-c2nc(-c3ccccn3)ncc2S(C)(=O)=O)cc1 -15.3%, O=C(NC(=S)Nc1ccc(N2CCOCC2)cc1)c1cccc(Cl)c1 2%, O=[N+]([O-])c1ccc(N=Cc2c(O)ccc3ccccc23)cc1 -26.8%, Cc1ccc(S(=O)(=O)CCC(=O)Nc2cccc(S(=O)(=O)N3CCCCCC3)c2)cc1 -94.9%, COc1cnn(-c2ccc(C)cc2)c(=O)c1Br -27.2%, COc1cc(S(=O)(=O)n2ccnc2)ccc1Br -20.3%, O=C1c2ccccc2C(=O)N1CCC#Cc1ccc2cc(CCO)oc(=O)c2c1 9.92%
